Publication PMC3514216, “SRC Homology 2 Domain Binding Sites in Insulin, IGF-1 and FGF receptor mediated signaling networks reveal an extensive potential interactome” (Cell Communication and Signaling : CCS, 2012)
No constants are given. Whether binding was seen depends on the method and setting. For part of these data: A result given as binding can be weak or reduced; the word gives no strength. For part of these data: Tags and fused reporters may be left off the sequences shown. Values belong to the substance of their own block, whether it stands above or below them.

Key:
[1] = molecular target: T1, FRS2 (Y196) phosphopeptide QVHTpYVNTTGV, SPOT array; assay: peptide or protein array; SPOT array of 192 membrane-bound 11-mer phosphotyrosine peptides; GST-SH2 0.25 uM in TBS-T with 5% nonfat milk and 1 mM DTT, 1.5 h, room temperature; anti-GST and Alexa-Fluor-680 secondary, Li-Cor Odyssey; array positive >3X the array mean, array negative <1X, indeterminate between; both purified
T1 sequence (peptide, phosphotyrosine at position 5 (Y196); membrane-bound): QVHTYVNTTGV

[2] = molecular target: T2, FRS2 (Y349) phosphopeptide ALLNpYENLPSL, SPOT array; assay: as above
T2 sequence (peptide, phosphotyrosine at position 5 (Y349); membrane-bound): ALLNYENLPSL

[3] = molecular target: T3, p130Cas (Y664) phosphopeptide WMEDpYDYVHLQ, SPOT array; assay: as above
T3 sequence (peptide, phosphotyrosine at position 5 (Y664); membrane-bound): WMEDYDYVHLQ

[4] = molecular target: T4, p62DOK1 (Y398) phosphopeptide KEEGpYELPYNP, SPOT array; assay: as above
T4 sequence (peptide, phosphotyrosine at position 5 (Y398); membrane-bound): KEEGYELPYNP

[5] = molecular target: T5, IRS-2 (Y540) phosphopeptide GGEFpYGYMTMD, SPOT array; assay: as above
T5 sequence (peptide, phosphotyrosine at position 5 (Y540); membrane-bound): GGEFYGYMTMD

[6] = molecular target: T6, FRS2 (Y436) phosphopeptide RQLNpYIQVDLE, SPOT array; assay: as above
T6 sequence (peptide, phosphotyrosine at position 5 (Y436); membrane-bound): RQLNYIQVDLE

[7] = molecular target: T7, InsR (Y1185,89,90) triply phosphorylated peptide TRDIpYETDpYpYR, SPOT array; assay: as above
T7 sequence (peptide, phosphotyrosine at positions 5, 9 and 10 (Y1185, Y1189, Y1190); membrane-bound): TRDIYETDYYR

[8] = molecular target: T8, IRS-1 (Y1179) phosphopeptide NGLNpYIDLDLV, SPOT array; assay: as above
T8 sequence (peptide, phosphotyrosine at position 5 (Y1179); membrane-bound): NGLNYIDLDLV

[9] = molecular target: PDGFRb (Y1021) phosphopeptide ADNDpYIIPLPD, SPOT array; assay: as above
[10] = molecular target: IRS-1 (Y896) phosphopeptide SPGEpYVNIEFG, SPOT array; assay: as above
[11] = molecular target: FGFR3 (Y760) phosphopeptide STDEpYLDLSAP, SPOT array; assay: as above
[12] = molecular target: FGFR3 (Y760) phosphopeptide STDEpYLDLSAP, Rhodamine B-labelled; assay: fluorescence polarisation; Rhodamine B-labelled peptide in solution with SH2 domain; Beacon 2000; as previously described [40]; both purified
[13] = molecular target: T9, p130Cas (Y362) phosphopeptide AEDVpYDVPPPA, Rhodamine B-labelled; assay: as above
T9 sequence (peptide, phosphotyrosine at position 5 (Y362); Rhodamine B label): AEDVYDVPPPA

[14] = molecular target: T10, p62DOK1 (Y398) phosphopeptide KEEGpYELPYNP, Rhodamine B-labelled; assay: as above
T10 sequence (peptide, phosphotyrosine at position 5 (Y398); Rhodamine B label): KEEGYELPYNP

[15] = molecular target: T11, p62DOK1 (Y296) phosphopeptide PPALpYAEPLDS, SPOT array; assay: peptide or protein array; SPOT array of 192 membrane-bound 11-mer phosphotyrosine peptides; GST-SH2 0.25 uM in TBS-T with 5% nonfat milk and 1 mM DTT, 1.5 h, room temperature; anti-GST and Alexa-Fluor-680 secondary, Li-Cor Odyssey; array positive >3X the array mean, array negative <1X, indeterminate between; both purified
T11 sequence (peptide, phosphotyrosine at position 5 (Y296); membrane-bound): PPALYAEPLDS

[16] = molecular target: T12, p62DOK1 (Y315) phosphopeptide QDSLpYSDPLDS, SPOT array; assay: as above
T12 sequence (peptide, phosphotyrosine at position 5 (Y315); membrane-bound): QDSLYSDPLDS

[17] = molecular target: T13, FGFR1 (Y463) phosphopeptide GVSEpYELPEDP, Rhodamine B-labelled; assay: fluorescence polarisation; Rhodamine B-labelled peptide in solution with SH2 domain; Beacon 2000; as previously described [40]; both purified
T13 sequence (peptide, phosphotyrosine at position 5 (Y463); Rhodamine B label): GVSEYELPEDP

[18] = molecular target: T14, PLCγ1 (Y783) phosphopeptide NPGFpYVEANPM, SPOT array; assay: peptide or protein array; SPOT array of 192 membrane-bound 11-mer phosphotyrosine peptides; GST-SH2 0.25 uM in TBS-T with 5% nonfat milk and 1 mM DTT, 1.5 h, room temperature; anti-GST and Alexa-Fluor-680 secondary, Li-Cor Odyssey; array positive >3X the array mean, array negative <1X, indeterminate between; both purified
T14 sequence (peptide, phosphotyrosine at position 5 (Y783); membrane-bound): NPGFYVEANPM

binding [1]: binds | binding [2]: binds
Substance: GST-PI3K1_C SH2 domain (human) (domain or fragment)

binding [3]: binds | binding [4]: binds
Substance: GST-PI3K1_N SH2 domain (human) (domain or fragment)

binding [5]: binds | binding [6]: binds | binding [7]: binds | binding [8]: binds | binding [9]: binds | binding [10]: binds
Substance: GST-PLCγ1_C SH2 domain (human) (domain or fragment)

binding [11]: no binding (tested: 0.25 uM) | binding [10]: binds
Substance: GST-PLCγ2_C SH2 domain (human) (domain or fragment)

binding [11]: no binding (tested: 0.25 uM) | binding [12]: no binding (tested: >50 uM)
Substance: GST-PLCγ2_N SH2 domain (human) (domain or fragment)

binding [9]: binds
Substance: GST-PLCγ_N SH2 domain (human) (domain or fragment)

binding [6]: binds | binding [13]: no binding (tested: >50 uM) | binding [14]: no binding (tested: >50 uM)
Substance: GST-Ptpn11_N SH2 domain (human) (domain or fragment)

binding [15]: binds | binding [16]: binds | binding [3]: binds | binding [4]: binds | binding [10]: binds | binding [17]: no binding (tested: >17 uM) | binding [12]: no binding (tested: >17 uM)
Substance: GST-Rasa1_C SH2 domain (human) (domain or fragment)

binding [6]: binds | binding [15]: binds | binding [3]: binds | binding [4]: binds | binding [8]: binds | binding [10]: binds
Substance: GST-Rasa1_N SH2 domain (human) (domain or fragment)

binding [6]: binds | binding [10]: binds
Substance: GST-Syk_C SH2 domain (human) (domain or fragment)

binding [15]: binds | binding [16]: binds | binding [18]: binds
Substance: GST-Zap70_N SH2 domain (human) (domain or fragment)
